In paper PMC8377056:
No constants are given. Whether binding was seen depends on the method and setting. Some results given as binding are weak or reduced against the parent protein; the word gives no strength.

Amino acid sequences for entries named in this document (tags omitted). Residues count along the entry.
UniProt P35951, residues 22-862: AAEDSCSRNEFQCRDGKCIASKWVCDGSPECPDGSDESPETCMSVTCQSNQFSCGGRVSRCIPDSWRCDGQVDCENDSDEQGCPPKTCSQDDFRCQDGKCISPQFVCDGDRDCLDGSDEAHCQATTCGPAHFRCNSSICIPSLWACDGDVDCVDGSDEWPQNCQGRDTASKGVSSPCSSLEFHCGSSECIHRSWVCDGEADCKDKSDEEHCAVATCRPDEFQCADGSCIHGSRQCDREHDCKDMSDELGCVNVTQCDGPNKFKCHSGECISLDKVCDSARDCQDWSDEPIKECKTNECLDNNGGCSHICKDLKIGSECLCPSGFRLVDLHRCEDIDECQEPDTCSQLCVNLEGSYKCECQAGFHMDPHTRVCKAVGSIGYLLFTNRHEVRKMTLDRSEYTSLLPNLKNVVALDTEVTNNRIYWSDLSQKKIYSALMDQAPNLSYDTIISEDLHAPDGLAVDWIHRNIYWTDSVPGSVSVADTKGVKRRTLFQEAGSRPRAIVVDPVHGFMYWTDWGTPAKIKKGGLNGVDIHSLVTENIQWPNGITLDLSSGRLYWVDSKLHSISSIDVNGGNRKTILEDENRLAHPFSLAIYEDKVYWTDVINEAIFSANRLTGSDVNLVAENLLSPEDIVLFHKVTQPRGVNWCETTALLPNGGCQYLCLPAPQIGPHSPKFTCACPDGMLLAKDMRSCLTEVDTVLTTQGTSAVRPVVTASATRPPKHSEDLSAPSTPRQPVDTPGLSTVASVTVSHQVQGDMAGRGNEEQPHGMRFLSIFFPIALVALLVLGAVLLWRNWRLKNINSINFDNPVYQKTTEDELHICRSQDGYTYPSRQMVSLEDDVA
UniProt P04114, residues 28-4563: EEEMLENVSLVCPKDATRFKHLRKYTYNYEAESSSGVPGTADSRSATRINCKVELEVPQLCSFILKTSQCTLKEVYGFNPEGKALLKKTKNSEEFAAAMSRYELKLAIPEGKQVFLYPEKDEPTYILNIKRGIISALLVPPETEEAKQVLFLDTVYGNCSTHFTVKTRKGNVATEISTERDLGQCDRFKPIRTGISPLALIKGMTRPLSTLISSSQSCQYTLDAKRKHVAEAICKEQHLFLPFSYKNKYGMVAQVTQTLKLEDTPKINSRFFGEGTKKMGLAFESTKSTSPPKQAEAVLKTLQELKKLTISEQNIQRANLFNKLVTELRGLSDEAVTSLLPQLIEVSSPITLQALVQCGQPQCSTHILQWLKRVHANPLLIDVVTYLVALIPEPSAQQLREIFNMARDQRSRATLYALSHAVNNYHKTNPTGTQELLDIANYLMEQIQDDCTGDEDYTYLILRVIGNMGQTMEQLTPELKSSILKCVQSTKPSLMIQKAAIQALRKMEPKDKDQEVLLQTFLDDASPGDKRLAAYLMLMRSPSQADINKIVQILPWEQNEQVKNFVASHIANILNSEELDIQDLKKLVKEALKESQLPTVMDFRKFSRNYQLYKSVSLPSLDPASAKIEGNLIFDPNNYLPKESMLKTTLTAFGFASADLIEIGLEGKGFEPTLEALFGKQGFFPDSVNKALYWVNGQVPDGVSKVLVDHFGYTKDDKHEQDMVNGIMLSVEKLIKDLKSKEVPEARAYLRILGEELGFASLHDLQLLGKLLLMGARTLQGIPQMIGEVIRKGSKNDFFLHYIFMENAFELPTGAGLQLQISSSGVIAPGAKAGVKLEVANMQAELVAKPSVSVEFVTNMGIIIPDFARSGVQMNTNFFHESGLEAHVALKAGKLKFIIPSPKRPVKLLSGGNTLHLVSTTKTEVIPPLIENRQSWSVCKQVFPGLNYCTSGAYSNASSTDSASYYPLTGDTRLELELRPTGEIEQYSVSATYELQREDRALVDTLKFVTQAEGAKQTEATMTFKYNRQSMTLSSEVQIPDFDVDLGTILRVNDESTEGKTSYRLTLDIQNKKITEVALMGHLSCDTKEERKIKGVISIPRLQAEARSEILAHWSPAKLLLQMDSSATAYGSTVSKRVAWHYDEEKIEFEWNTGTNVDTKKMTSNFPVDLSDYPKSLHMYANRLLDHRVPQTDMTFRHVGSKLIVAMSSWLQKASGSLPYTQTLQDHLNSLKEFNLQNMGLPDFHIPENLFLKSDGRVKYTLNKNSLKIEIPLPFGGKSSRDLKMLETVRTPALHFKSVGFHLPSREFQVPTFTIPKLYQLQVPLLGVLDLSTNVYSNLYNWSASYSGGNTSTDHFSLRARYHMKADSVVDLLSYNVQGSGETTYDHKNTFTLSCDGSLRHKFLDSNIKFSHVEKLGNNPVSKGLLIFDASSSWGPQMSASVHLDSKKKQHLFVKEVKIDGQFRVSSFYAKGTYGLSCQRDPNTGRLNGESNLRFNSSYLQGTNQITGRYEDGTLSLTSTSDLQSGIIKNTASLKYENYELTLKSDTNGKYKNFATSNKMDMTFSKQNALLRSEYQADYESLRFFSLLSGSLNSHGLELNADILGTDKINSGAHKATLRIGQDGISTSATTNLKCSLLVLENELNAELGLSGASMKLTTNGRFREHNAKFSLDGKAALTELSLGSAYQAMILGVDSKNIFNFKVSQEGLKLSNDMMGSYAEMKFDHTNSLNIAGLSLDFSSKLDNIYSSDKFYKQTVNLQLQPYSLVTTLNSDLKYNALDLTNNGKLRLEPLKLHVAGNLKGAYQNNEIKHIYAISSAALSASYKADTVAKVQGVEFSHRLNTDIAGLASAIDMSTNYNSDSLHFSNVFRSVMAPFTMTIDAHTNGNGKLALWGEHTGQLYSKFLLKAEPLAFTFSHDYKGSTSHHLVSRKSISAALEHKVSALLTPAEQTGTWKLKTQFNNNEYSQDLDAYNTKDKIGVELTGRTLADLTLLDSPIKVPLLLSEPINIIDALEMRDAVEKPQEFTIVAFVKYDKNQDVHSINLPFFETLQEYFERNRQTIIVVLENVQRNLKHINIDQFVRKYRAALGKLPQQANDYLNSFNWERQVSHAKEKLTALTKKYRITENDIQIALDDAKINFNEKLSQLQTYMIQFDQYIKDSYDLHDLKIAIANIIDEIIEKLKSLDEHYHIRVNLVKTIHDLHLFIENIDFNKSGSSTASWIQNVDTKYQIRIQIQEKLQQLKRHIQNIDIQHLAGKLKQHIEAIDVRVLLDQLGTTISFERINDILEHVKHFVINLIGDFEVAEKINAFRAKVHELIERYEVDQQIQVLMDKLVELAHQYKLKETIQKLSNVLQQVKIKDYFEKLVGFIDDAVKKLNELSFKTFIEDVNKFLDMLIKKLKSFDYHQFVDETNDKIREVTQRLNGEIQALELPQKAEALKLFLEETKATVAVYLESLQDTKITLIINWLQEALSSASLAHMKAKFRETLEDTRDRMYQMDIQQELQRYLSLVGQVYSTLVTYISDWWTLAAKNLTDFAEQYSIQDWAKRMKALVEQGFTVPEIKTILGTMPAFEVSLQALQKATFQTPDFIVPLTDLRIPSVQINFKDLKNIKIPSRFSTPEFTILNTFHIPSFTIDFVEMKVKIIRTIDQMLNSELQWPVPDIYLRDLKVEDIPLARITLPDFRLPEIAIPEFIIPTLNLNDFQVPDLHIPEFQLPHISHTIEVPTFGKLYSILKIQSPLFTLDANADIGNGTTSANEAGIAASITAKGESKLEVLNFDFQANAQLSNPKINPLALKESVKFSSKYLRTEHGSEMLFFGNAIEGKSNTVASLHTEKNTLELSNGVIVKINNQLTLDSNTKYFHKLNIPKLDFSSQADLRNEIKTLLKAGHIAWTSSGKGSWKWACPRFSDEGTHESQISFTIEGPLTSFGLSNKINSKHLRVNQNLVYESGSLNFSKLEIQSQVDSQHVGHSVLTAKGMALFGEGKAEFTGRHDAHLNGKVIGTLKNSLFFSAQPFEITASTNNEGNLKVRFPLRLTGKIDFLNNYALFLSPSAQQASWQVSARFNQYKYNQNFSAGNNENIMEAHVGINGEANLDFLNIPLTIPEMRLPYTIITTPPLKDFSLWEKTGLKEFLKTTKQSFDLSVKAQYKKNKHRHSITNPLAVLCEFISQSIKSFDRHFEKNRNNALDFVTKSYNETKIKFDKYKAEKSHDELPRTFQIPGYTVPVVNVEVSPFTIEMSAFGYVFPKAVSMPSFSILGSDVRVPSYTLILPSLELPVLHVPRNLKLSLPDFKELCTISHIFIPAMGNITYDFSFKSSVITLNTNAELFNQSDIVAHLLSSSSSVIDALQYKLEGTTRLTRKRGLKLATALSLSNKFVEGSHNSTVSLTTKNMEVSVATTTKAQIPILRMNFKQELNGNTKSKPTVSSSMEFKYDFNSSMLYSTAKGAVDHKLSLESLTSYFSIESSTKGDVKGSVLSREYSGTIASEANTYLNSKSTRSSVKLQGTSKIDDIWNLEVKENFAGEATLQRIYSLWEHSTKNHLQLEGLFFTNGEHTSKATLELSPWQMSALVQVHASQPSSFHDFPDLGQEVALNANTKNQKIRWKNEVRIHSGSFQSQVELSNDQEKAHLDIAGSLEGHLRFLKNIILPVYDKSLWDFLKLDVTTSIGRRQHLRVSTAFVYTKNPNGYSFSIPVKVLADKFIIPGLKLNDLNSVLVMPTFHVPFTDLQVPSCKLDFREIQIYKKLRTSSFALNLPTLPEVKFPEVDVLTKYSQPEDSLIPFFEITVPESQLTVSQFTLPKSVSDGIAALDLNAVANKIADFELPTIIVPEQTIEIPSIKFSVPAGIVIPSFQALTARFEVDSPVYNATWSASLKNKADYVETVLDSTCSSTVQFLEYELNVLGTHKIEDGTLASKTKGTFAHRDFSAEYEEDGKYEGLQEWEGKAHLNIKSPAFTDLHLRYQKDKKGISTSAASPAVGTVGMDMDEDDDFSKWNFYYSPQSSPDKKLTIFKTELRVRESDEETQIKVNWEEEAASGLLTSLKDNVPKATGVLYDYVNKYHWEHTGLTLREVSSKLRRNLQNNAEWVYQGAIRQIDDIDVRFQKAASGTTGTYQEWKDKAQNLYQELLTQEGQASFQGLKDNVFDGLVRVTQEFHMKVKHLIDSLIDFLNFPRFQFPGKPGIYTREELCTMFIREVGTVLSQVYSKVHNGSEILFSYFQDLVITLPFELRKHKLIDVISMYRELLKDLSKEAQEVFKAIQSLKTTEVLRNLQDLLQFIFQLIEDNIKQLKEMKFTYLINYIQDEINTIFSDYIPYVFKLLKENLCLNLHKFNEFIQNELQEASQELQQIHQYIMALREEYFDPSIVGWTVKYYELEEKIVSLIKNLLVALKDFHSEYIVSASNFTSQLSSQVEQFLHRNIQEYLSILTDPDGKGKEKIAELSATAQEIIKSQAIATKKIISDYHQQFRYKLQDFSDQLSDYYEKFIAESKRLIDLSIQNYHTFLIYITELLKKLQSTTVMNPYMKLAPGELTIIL

Molecular target: LDLR on Ldlr WT PK4A cells (mouse (endogenous in PK4A)) (UniProt P35951)
Test: flow cytometry on cells; Ldlr WT or KO PK4A cells incubated with conjugate (20 nM) with or without DiI-LDL (20 ug/ml) in DMEM-1% BSA for 6 h; half of the cells acid-stripped (pH 3) to tell total (bound and internalized) from intracellular signal; only the binder purified

Substance: fluorescent LDL (DiI-LDL) (from UniProt P04114 28-4563) (ligand)
- binding: binds
